# Data as given in PubChem BioAssay AID1259272 (Sanger Institute, 2017).
# Screen: 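Find kinases needed for SW1116 growth and partners for drug combinations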 (primary screen)
# Cells: SW1116 human colorectal cancer cells
# Reagent: siRNA pool against human genes
# Challenge: anchor drugs BYL719 (1 µM), cetuximab (5 µg/ml) or trametinib (10 nM), or DMSO vehicle; exposure length not given
# Measured: 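Cell survival as a fraction of wells given a non-targeting pool, averaged over replicates; robust z-score without drug; synergy score for each of BYL719, cetuximab and trametinib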
# Direction: viability z-score, no drug: higher = more cells remaining; strongly negative means essential gene; viability, no drug: higher = more viable cells; synergy score with BYL719: higher = stronger synthetic-lethal synergy with the drug
# Call rule: 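a robust z-score under -3 with siRNA and no drug marks the gene essential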
# Meaning of the calls: active = essential (knock-down alone); inactive = no change
# Shown is one part, drawn at random, of 794 deposited reagents. 7 of all reagents (0.88%) were called active. 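Essential calls reflect knock-down without drug only, not synergy with drugs; drug exposure length not given.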 Viability is capped at 1. Further read-outs or replicates are left out here. Not stated in the record: the amount of reagent, the time to read-out.
gene,"viability z-score, no drug","viability, no drug (fraction of control)",synergy score with BYL719,activity call
NEK5 (NIMA related kinase 5),0.842,1,0.02,inactive
AK4 (adenylate kinase 4),0.573,0.971,-0.043,inactive
MAP2K1 (mitogen-activated protein kinase kinase 1),0.631,0.978,-0.0387,inactive
LTK (leukocyte receptor tyrosine kinase),0.842,1,-0.0104,inactive
LRRK1 (leucine rich repeat kinase 1),0.842,1,-0.0788,inactive
DYRK3 (dual specificity tyrosine phosphorylation regulated kinase 3),0.842,1,-0.0495,inactive
INSR (insulin receptor),0.842,1,-0.0605,inactive
STK39 (serine/threonine kinase 39),-1.95,0.703,0.0366,inactive
EGFR (epidermal growth factor receptor),-0.27,0.882,-0.0471,inactive
BRDT (bromodomain testis associated),0.842,1,-0.0788,inactive
CDK19 (cyclin dependent kinase 19),-1.61,0.738,-0.241,inactive
RPS6KA1 (ribosomal protein S6 kinase A1),0.624,0.977,-0.1,inactive
CSNK2B (casein kinase 2 beta),-0.383,0.87,-0.107,inactive
MAP2K4 (mitogen-activated protein kinase kinase 4),-1.04,0.8,-0.119,inactive
SBK1 (SH3 domain binding kinase 1),0.842,1,-0.0788,inactive
POLR2B (RNA polymerase II subunit B),-1.15,0.788,-0.108,inactive
AKT1 (AKT serine/threonine kinase 1),0.207,0.932,-0.127,inactive
DGUOK (deoxyguanosine kinase),-1.22,0.78,0.0727,inactive
VRK2 (VRK serine/threonine kinase 2),0.842,1,0.123,inactive
CMPK1 (cytidine/uridine monophosphate kinase 1),0.842,1,0.0999,inactive
PIK3CG,-0.245,0.884,-0.155,inactive
ATM (ATM serine/threonine kinase),-1.27,0.775,-0.138,inactive
CAMK1D (calcium/calmodulin dependent protein kinase ID),-0.473,0.86,-0.0162,inactive
SHPK (sedoheptulokinase),-0.347,0.873,-0.041,inactive
PTEN (phosphatase and tensin homolog),0.842,1,-0.0699,inactive
CDK8 (cyclin dependent kinase 8),0.842,1,-0.0352,inactive
CSNK1G2 (casein kinase 1 gamma 2),-1.12,0.791,-0.235,inactive
CIB2 (calcium and integrin binding family member 2),0.671,0.982,0.0073,inactive
ACSL6 (acyl-CoA synthetase long chain family member 6),0.842,1,-0.0367,inactive
MAP3K6 (mitogen-activated protein kinase kinase kinase 6),0.842,1,-0.0684,inactive
EPHA2 (EPH receptor A2),-0.00835,0.909,-0.136,inactive
MAPK10 (mitogen-activated protein kinase 10),0.842,1,-0.0259,inactive
GOLGA5 (golgin A5),0.327,0.945,-0.101,inactive
PAK1 (p21 (RAC1) activated kinase 1),-1.48,0.753,-0.0698,inactive
STK32C (serine/threonine kinase 32C),0.842,1,-0.0337,inactive
MELK (maternal embryonic leucine zipper kinase),0.404,0.953,-0.0909,inactive
MAPK9 (mitogen-activated protein kinase 9),0.842,1,0.0477,inactive
IKBKB (inhibitor of nuclear factor kappa B kinase subunit beta),0.842,1,-0.0683,inactive
PASK (PAS domain containing serine/threonine kinase),0.344,0.947,-0.0317,inactive
PIK3CA,0.312,0.944,-0.0913,inactive
TRIM27 (tripartite motif containing 27),0.842,1,0.024,inactive
"PIM3 (Pim-3 proto-oncogene, serine/threonine kinase)",0.842,1,-0.0788,inactive
ERBB3 (erb-b2 receptor tyrosine kinase 3),0.842,1,0.0216,inactive
PHKG1 (phosphorylase kinase catalytic subunit gamma 1),-0.457,0.862,-0.0686,inactive
PKN2 (protein kinase N2),0.776,0.993,0.0553,inactive
"GUCY2F (guanylate cyclase 2F, retinal)",0.41,0.954,-0.0995,inactive
PRKAG1 (protein kinase AMP-activated non-catalytic subunit gamma 1),-0.886,0.816,-0.0499,inactive
"RELA (RELA proto-oncogene, NF-kB subunit)",0.842,1,0.0733,inactive
DLG2 (discs large MAGUK scaffold protein 2),0.842,1,-0.0155,inactive
CUL1 (cullin 1),0.842,1,-0.0357,inactive

Only “viability z-score, no drug”, for 2 of the entries above:
IKBKB (inhibitor of nuclear factor kappa B kinase subunit beta)	0.842
PASK (PAS domain containing serine/threonine kinase)	0.344
